Structures can show the parent of a compound that is named as a salt. Many values rest on one well or one pass, so single values are uncertain.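 All cells are established human bladder cancer lines, one of them grown from a patient-derived xenograft. Viability was read by a luminescent ATP assay as percent inhibition versus vehicle over a seven-point dilution series; the paper calls scores above 59 very active, 30–59 active, 21–29 semi-active, 9–20 low active and below 9 inactive.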
What was measured:
Test in all cases: drug sensitivity score DSS3 (score 0-100); higher = more sensitive; extreme values may be limits of the assay
Conditions in all cases: culture: 3D, ultra-low attachment; treatment time: 5 days
[1] = test system: UM-UC-5
[2] = test system: UM-UC-6
[3] = test system: UM-UC-14
[4] = test system: BC8149
[5] = test system: TCCSUP
[6] = test system: UM-UC-17
[7] = test system: UM-UC-1
[8] = test system: 5637
[9] = test system: UM-UC-18
[10] = test system: T-24
[11] = test system: SW780
[12] = test system: SCaBER
[13] = test system: UM-UC-15
[14] = test system: J82
[15] = test system: UM-UC-12
[16] = test system: UM-UC-9

Compound | drug sensitivity score DSS3 [1] | drug sensitivity score DSS3 [2] | drug sensitivity score DSS3 [3] | drug sensitivity score DSS3 [4] | drug sensitivity score DSS3 [5] | drug sensitivity score DSS3 [6] | drug sensitivity score DSS3 [7] | drug sensitivity score DSS3 [8] | drug sensitivity score DSS3 [9] | drug sensitivity score DSS3 [10] | drug sensitivity score DSS3 [11] | drug sensitivity score DSS3 [12] | drug sensitivity score DSS3 [13] | drug sensitivity score DSS3 [14] | drug sensitivity score DSS3 [15] | drug sensitivity score DSS3 [16]
CC1(COc2ccc3c(c2)ncn3-c2ccc3cccc(N4CCC(N)CC4)c3n2)COC1 (max dose 10000 nM) | 0 | 0.437 | 0.305 | 0.144 | 0 | 0 | 0.0957 | 0.0883 | 7.3 | 1.5 | 0 | 1.14 | 0 | 0 | 9.09 | 0
O=C1CN2Cc3c(ccc(Cl)c3Cl)N=C2N1 [Anagrelide HCl] (max dose 10000 nM) | 5.74 | 2.49 | 6.25 | 11.3 | 9.8 | 25.9 | – | 11 | 18.4 | 7.88 | – | 22.3 | 18.1 | – | 2.96 | 3.35
COc1ccc(COc2ccc(Cc3cnc(N)nc3N)cc2OC)cc1 [GW2580] (max dose 10000 nM) | 0 | 0.384 | 0 | – | 0 | 0 | – | 3.84 | 0 | 1.12 | 0.00822 | 1.72 | 0 | 0 | 1.29 | 2.47
O=C(Nc1cccc(Cl)c1)Nc1ncc(CCNc2ncnc3ccsc23)s1 [SNS-314 Mesylate] (max dose 10000 nM) | 0 | 16.9 | 23.2 | 24.7 | 62.9 | 4.19 | 14.3 | 51.6 | 6.65 | 0 | 0 | – | 0 | 3.27 | 21.5 | 0
COc1cc2c(cc1OC)[C@H]1C[C@@H](OC(=O)[C@@H](N)C(C)C)[C@H](CC(C)C)CN1CC2 [Valbenazine tosylate] (max dose 10000 nM) | 0 | 0 | 0 | 1.83 | 0 | 0 | 0 | 0 | 0 | 0 | 0.914 | – | 0 | 0.23 | 1.36 | 0
CCNC1(C(N)=O)CCN(c2ncnc3c2nc(-c2ccccc2Cl)n3-c2ccc(Cl)cc2)CC1 (max dose 10000 nM) | 0 | 0.18 | 0 | 0 | 0 | 0 | – | 0.853 | 0 | 0 | 0 | 0 | 0 | 0 | 0 | 0
O=C(NC[C@H](O)CO)c1ccncc1Nc1ccc(I)cc1F (max dose 10000 nM) | 24.4 | 0.692 | 1.25 | – | 2.3 | – | 1.66 | 2.91 | 0 | 3.23 | 0 | 30.5 | 12.4 | 0.000512 | 0.971 | 0
O=C(Nc1ccc([N+](=O)[O-])cc1O)Nc1ccccc1Br (max dose 10000 nM) | – | 6.12 | 5.36 | – | 9.18 | 8.32 | 9.32 | 8.01 | – | 0 | – | – | – | – | 1.84 | 0
Cc1ccc2nc(NCCN)c3ncc(C)n3c2c1 (max dose 10000 nM) | – | – | 0 | – | – | – | – | 0 | – | 0 | 0 | 0 | 0 | 0 | – | –
Cc1[nH]c(/C=C2\C(=O)Nc3ccc(S(=O)(=O)N(C)c4cccc(Cl)c4)cc32)c(C)c1C(=O)N1CCN(C)CC1 (max dose 10000 nM) | 22.5 | 10.3 | 15.2 | 22.6 | 25.2 | 15.7 | 8.67 | 55.2 | – | 0 | 20.3 | 17.9 | 0 | – | – | 20.4
Clc1cc2c(NC3CCCC3)nnc(-c3ccncc3)c2cc1Cl [A-196] (max dose 10000 nM) | 0 | 0 | 10.3 | 0 | 1.01 | 0 | 0 | 0 | 0 | 0 | 0 | 0 | 27.2 | – | 0 | 0
CC(C)n1c(/C=C/C(O)CC(O)CC(=O)O)c(-c2ccc(F)cc2)c2ccccc21 (centres undefined) [Fluvastatin Sodium] (max dose 10000 nM) | 0.201 | 2.4 | 0 | – | 0 | 0 | 0.928 | 35.1 | 25.2 | 6.88 | 0 | 0 | 0 | – | 27.7 | 0
CNC(=O)c1cc(Oc2ccc(NC(=O)Nc3ccc(Cl)c(C(F)(F)F)c3)cc2)ccn1 [Sorafenib tosylate] (max dose 10000 nM) | 0 | 1.3 | 1.12 | 0 | 6.89 | 0 | 0 | 7.53 | 15.8 | 0 | 0 | 6.83 | 0.0974 | 0 | – | 0.208
Cc1nc(Nc2ncc(C(=O)Nc3c(C)cccc3Cl)s2)cc(N2CCN(CCO)CC2)n1 [Dasatinib] (max dose 10000 nM) | 0 | 0.425 | 0 | 0 | – | 0 | 0.0229 | 1.73 | 0.734 | 15.5 | 0.575 | 27.8 | 0 | 4.72 | – | 0
Cn1cc(-c2ccc3nnc(C(F)(F)c4ccc5ncccc5c4)n3n2)cn1 (max dose 10000 nM) | 0 | 0 | – | – | 33.6 | – | 0 | 0 | – | 0.274 | 0 | 0 | 0 | 0 | 0 | 0
CN(C)/N=N/c1[nH]cnc1C(N)=O [Dacarbazine] (max dose 10000 nM) | 0 | 0.00151 | 6.26 | 11.1 | 18.3 | 0 | – | 30.4 | 0 | 0 | 0 | 16.7 | – | 0.441 | 0 | 0.298
CCOc1ccccc1-n1c(C(C)N2CCN(C(=O)COc3ccc(Cl)cc3)CC2)nc2ccccc2c1=O (centres undefined) [Erastin] (max dose 10000 nM) | 3.82 | 0 | 1.35 | – | 1.92 | 0.476 | 0.691 | 0.66 | 0 | 0 | 0 | 0.621 | 0.71 | 0.0282 | 0.916 | 2.26
O=C(Cc1ccccc1)Nc1nnc(CCSCCc2nnc(NC(=O)Cc3ccccc3)s2)s1 [BPTES] (max dose 10000 nM) | 0.0827 | 0 | 0 | – | 1.87 | 0.103 | 0.634 | 0.228 | 0 | 0.384 | 0 | 0 | 13.7 | 0 | 0.915 | 0
Cc1csc(-c2nnc(Nc3ccc(Oc4ncccc4-c4ccnc(N)n4)cc3)c3ccccc23)c1 [AMG-900] (max dose 10000 nM) | 0 | 44.6 | 57 | 27.1 | 81.4 | – | 52.3 | 78.4 | 47.4 | – | 0 | 20.8 | 0 | 0 | 28.2 | 0.0348
C=CC(=O)Nc1cc(Nc2nccc(-c3cn(C)c4ccccc34)n2)c(OC)cc1N(C)CCN(C)C [Osimertinib] (max dose 10000 nM) | 0 | 7.61 | 0.701 | 11.1 | 7 | 0.403 | 0.0934 | 36.4 | 29.4 | – | 3.63 | 14.4 | 0 | 0 | 4.52 | 11.3
O=C(Nc1cccnc1)N1CCC(Cc2cccc(Oc3ccc(C(F)(F)F)cn3)c2)CC1 [PF-3845] (max dose 10000 nM) | 1.28 | 0.711 | 2.02 | 0 | 0 | 0 | 1.71 | 0.113 | 0.673 | – | 0.575 | 4.02 | 0 | 0 | 0.0307 | 0.687
COc1cc2ncnc(Nc3ccc(F)c(Cl)c3)c2cc1OCCCN1CCOCC1 [Gefitinib (ZD1839)] (max dose 10000 nM) | 0 | 14.2 | – | – | 9.54 | – | – | 14.8 | – | – | 0 | 26.6 | 13.7 | – | 33.7 | 8.15
CO[C@H]1C[C@@H]2CC[C@@H](C)[C@@](O)(O2)C(=O)C(=O)N2CCCC[C@H]2C(=O)O[C@H]([C@H](C)C[C@@H]2CC[C@@H](O)[C@H](OC)C2)CC(=O)[C@H](C)/C=C(\C)[C@@H](O)[C@@H](OC)C(=O)[C@H](C)C[C@H](C)/C=C/C=C/C=C/1C [Rapamycin (Sirolimus)] (max dose 10000 nM) | – | 7.21 | 14.5 | 32.7 | 39.5 | 0 | – | 0 | – | 0 | 0 | – | 0 | 0 | 15.4 | 0
Cc1cc(Nc2ncnc3ccc(NC4=NC(C)(C)CO4)cc23)ccc1Oc1ccn2ncnc2c1 [Irbinitinib] (max dose 10000 nM) | 0 | 0.782 | 0 | 0 | 0.38 | 0 | 0.0862 | 0 | 0.384 | 0 | 1.18 | 0 | 0 | 0 | – | 0.0611
CC(C)OC(=O)C1=CN(C(=O)c2ccc(F)c(F)c2)CC(C)(C)c2c1[nH]c1ccccc21 [XL335] (max dose 10000 nM) | 15.2 | 10.9 | – | 20.1 | 35.1 | 30.2 | 19.8 | 22.4 | – | 12.2 | 27.4 | – | 0.0905 | 0 | 21.9 | –
C[C@H](NC(=O)c1c(N)nn2cccnc12)c1cc2cccc(C#Cc3cnn(C)c3)c2c(=O)n1-c1ccccc1 [IPI-549] (max dose 10000 nM) | 0 | 0 | 0.125 | 0.5 | 0.372 | 0 | 0 | 0 | 0 | – | 0 | 0.302 | 0 | 0 | 0 | 0
Cc1ccc([C@@H]2O[C@H](CO)[C@@H](O)[C@H](O)[C@H]2O)cc1Cc1ccc(-c2ccc(F)cc2)s1 [Canagliflozin hemihydrate] (max dose 10000 nM) | 0 | 4 | 0 | 0 | 0 | 0 | 0 | 0 | 0 | 0 | 0 | 0 | 0 | 0 | – | 0
COc1cc(-c2cn[nH]c2)ccc1C(=O)Nc1ccc2c(c1)CCNCC2 (max dose 10000 nM) | 0 | 0 | 0 | – | 0 | 0 | – | 1.8 | 0 | – | 0 | – | 0 | 0 | 0 | 0

In a second layout: two of the compounds above.
Compound	drug sensitivity score DSS3 [1]	drug sensitivity score DSS3 [2]	drug sensitivity score DSS3 [3]	drug sensitivity score DSS3 [4]	drug sensitivity score DSS3 [5]	drug sensitivity score DSS3 [6]	drug sensitivity score DSS3 [7]	drug sensitivity score DSS3 [8]	drug sensitivity score DSS3 [9]	drug sensitivity score DSS3 [10]	drug sensitivity score DSS3 [11]	drug sensitivity score DSS3 [12]	drug sensitivity score DSS3 [13]	drug sensitivity score DSS3 [14]	drug sensitivity score DSS3 [15]	drug sensitivity score DSS3 [16]
CC(C)n1c(/C=C/C(O)CC(O)CC(=O)O)c(-c2ccc(F)cc2)c2ccccc21 (centres undefined) [Fluvastatin Sodium] (max dose 10000 nM)	0.201	2.4	0	–	0	0	0.928	35.1	25.2	6.88	0	0	0	–	27.7	0
CNC(=O)c1cc(Oc2ccc(NC(=O)Nc3ccc(Cl)c(C(F)(F)F)c3)cc2)ccn1 [Sorafenib tosylate] (max dose 10000 nM)	0	1.3	1.12	0	6.89	0	0	7.53	15.8	0	0	6.83	0.0974	0	–	0.208

From the supplement of paper PMC7646827
